In patent publication US20050101542A1, “Combination therapy for controlling appetites” (Regents of the University of California, priority 2002, published 2005):
“Also recorded” adds a separate entry of the source. At least one structure is not confirmed: it was looked up by name or label, or the drawing left a doubt.

Test: Acute feeding experiments in free-feeding mice (C57BL/6J, wild-type, PPARα-null)
Assay type: in vivo, mouse
Conditions: i.p.; Wy-14643 40, GW7647 20, clofibrate 25-100, GW501516 1-10, ciglitazone 15 mg kg^−1
Method: Acute experiments. Drugs or appropriate vehicles (saline, for CCK-8 and d-fenfluramine; dimethylsulfoxide/saline, 70/30, for all other agents; 4 ml-kg^−1; i.p.) were administered at 5:00-5:30 PM to free-feeding mice, which were habituated to the experimental setting.

Question: Which “food intake in C57BL/6J mice” value does the source give for CC1(COc2ccc(CC3SC(=O)NC3=O)cc2)CCCCC1 (stereo not shown) [ciglitazone] here?
Answer: did not affect feeding; also recorded: Lack of effect
